Results are given in words; binding and its absence hold for the method and conditions named. In cells and extracts the contact can be indirect. Some results given as binding are weak or reduced against the parent protein; the word gives no strength.
Molecular target: Cytoplasmic FMRP-interacting protein 1 (CYFIP1) (mouse (endogenous in primary cortical neurons)) (UniProt Q7TMB8)
Assay: co-IP; CYFIP1 immunoprecipitation on protein extracts from DIV 3 WT cortical neurons; HuD/Elavl4 and HuR/Elavl1 found in the precipitate (Fig. S4d)

Amino acid sequences for entries named in this document (tags omitted).
UniProt Q7TMB8: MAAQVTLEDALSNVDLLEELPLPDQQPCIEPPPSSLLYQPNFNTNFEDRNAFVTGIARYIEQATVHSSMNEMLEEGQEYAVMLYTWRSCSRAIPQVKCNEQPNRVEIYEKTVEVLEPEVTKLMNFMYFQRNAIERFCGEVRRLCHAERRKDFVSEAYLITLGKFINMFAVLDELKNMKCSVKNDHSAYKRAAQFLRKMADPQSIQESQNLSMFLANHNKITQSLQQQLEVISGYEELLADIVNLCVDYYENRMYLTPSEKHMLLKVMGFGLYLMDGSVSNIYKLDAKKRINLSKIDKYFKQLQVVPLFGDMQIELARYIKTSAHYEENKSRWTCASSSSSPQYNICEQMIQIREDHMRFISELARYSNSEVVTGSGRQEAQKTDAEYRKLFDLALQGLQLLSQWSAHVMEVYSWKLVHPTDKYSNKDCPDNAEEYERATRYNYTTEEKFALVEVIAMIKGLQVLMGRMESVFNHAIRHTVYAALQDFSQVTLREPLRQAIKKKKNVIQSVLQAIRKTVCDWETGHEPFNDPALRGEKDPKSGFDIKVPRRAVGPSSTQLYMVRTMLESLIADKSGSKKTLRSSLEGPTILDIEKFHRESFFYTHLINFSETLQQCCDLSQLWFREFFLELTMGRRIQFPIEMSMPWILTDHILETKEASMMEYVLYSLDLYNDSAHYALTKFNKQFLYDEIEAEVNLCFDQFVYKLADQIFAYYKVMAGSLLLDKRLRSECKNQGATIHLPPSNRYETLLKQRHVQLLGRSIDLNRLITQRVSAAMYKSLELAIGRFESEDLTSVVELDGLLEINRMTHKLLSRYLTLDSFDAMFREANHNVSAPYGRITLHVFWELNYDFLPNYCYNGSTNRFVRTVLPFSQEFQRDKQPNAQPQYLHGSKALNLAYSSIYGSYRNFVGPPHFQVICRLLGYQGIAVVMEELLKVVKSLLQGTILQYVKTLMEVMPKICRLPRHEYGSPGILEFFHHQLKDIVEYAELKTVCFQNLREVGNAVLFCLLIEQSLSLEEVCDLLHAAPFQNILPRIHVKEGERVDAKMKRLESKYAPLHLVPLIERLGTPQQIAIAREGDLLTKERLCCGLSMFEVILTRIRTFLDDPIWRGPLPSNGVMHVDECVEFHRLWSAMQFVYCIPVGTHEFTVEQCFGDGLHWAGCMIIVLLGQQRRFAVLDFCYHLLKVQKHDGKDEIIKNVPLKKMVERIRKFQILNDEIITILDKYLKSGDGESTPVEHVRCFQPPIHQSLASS
UniProt P70372: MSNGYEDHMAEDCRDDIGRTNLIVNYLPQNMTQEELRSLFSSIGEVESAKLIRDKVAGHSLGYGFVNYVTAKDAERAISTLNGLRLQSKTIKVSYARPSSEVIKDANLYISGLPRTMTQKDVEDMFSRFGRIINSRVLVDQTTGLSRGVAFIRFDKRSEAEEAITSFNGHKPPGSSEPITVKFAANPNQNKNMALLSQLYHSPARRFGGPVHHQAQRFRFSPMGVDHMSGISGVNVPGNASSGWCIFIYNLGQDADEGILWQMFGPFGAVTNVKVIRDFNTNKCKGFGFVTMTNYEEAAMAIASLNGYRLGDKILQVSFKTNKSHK
UniProt Q61701: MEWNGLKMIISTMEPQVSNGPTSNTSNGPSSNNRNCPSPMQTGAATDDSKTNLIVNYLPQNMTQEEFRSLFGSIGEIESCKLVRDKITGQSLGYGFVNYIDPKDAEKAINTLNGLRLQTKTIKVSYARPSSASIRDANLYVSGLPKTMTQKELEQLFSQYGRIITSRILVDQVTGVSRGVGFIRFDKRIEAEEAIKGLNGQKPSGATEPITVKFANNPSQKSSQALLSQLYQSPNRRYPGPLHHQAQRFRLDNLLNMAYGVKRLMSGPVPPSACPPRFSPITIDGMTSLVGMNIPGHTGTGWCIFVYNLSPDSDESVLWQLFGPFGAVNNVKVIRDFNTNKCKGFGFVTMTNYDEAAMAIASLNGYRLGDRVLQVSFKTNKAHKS

Row | Substance | binding
1 | HuR/Elavl1 (from UniProt P70372 1-326) | binds
2 | HuD/Elavl4 (from UniProt Q61701 1-385) | binds

Reference: paper PMC12663352
